Measurements: paper PMC7864070

Chains of the proteins cited; added tags and fusions are not shown. Lines headed by an entry give the natural chain unless they say otherwise; changes in a name come on top. A line that says so, or that is headed by a name, gives the form on record, which may keep a tag or linker. Residues count along the entry.
eYFP-ATZ (enhanced YFP-tagged α1-antitrypsin Z, E342K), expressed in Huh7.5 cells (P01009, form named): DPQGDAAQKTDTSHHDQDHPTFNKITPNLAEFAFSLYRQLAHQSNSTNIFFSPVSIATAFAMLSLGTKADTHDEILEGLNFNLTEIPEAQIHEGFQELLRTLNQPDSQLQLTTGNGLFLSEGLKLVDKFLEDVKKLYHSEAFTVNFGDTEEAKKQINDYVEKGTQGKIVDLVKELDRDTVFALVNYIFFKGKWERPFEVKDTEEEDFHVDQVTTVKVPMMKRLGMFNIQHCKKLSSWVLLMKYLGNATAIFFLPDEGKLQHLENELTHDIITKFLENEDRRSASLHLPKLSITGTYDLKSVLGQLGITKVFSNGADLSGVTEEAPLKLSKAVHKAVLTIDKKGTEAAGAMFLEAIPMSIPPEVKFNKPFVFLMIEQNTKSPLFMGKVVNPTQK
UniProt P34932: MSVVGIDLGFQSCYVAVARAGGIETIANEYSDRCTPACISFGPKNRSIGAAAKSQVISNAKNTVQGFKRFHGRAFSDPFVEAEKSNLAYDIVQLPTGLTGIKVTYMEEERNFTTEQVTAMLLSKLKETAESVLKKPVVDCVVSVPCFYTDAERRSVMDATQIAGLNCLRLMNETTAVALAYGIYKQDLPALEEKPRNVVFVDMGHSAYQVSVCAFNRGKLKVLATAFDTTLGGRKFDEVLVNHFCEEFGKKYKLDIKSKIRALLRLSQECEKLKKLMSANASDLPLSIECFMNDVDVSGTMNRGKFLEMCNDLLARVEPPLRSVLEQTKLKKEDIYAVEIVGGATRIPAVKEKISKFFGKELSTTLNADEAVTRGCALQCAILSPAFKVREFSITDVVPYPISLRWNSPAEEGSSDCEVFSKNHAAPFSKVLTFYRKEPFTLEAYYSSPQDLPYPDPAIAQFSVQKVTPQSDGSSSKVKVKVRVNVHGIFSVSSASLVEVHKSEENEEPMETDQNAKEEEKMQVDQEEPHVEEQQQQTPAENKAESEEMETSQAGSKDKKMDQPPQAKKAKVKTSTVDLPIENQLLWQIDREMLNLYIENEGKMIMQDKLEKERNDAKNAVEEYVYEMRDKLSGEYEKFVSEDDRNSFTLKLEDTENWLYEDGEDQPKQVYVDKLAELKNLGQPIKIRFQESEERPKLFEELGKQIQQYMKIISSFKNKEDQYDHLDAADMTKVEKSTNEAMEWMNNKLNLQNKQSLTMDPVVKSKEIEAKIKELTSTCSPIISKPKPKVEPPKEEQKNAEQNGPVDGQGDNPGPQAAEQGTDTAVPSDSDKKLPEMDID
UniProt P11021, residues 19-654: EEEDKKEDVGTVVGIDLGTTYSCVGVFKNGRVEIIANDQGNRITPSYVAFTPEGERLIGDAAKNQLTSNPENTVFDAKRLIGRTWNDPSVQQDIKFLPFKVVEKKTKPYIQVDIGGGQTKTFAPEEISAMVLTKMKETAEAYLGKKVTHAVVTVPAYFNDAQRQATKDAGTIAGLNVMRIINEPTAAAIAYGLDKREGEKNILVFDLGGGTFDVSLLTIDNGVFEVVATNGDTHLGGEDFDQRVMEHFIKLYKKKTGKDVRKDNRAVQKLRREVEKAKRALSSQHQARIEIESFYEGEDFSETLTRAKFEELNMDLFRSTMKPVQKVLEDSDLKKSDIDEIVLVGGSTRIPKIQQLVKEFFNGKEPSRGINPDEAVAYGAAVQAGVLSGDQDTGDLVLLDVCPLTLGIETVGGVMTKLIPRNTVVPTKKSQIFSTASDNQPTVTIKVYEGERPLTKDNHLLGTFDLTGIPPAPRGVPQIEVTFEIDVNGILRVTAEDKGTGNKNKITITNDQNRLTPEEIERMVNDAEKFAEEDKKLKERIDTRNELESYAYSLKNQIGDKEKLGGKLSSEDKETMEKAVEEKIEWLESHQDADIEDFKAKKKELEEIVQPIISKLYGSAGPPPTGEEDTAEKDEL
UniProt P53618: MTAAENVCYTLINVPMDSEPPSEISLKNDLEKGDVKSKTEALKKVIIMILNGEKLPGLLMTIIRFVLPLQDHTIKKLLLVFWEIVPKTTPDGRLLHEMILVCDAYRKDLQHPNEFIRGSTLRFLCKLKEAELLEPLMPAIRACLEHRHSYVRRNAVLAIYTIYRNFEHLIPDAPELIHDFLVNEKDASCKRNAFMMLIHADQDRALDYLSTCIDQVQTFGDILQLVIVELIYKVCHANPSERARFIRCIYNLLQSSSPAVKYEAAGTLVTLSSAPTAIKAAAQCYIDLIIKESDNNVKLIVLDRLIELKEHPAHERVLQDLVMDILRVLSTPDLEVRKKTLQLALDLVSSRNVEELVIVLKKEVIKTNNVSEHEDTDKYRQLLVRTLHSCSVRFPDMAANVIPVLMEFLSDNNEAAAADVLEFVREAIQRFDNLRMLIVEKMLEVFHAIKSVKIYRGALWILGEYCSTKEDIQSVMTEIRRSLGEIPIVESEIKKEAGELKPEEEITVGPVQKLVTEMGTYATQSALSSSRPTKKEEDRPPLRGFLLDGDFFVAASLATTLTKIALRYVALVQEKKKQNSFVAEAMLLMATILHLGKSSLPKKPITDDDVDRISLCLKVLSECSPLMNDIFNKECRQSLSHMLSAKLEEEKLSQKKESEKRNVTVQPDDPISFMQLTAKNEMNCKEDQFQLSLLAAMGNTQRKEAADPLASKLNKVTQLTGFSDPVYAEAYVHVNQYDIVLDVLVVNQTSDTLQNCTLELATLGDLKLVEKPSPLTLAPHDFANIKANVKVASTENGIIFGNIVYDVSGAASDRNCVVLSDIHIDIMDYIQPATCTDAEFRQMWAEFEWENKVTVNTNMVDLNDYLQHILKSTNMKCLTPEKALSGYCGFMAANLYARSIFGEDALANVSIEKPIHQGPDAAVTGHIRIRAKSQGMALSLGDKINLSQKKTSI
UniProt O14818: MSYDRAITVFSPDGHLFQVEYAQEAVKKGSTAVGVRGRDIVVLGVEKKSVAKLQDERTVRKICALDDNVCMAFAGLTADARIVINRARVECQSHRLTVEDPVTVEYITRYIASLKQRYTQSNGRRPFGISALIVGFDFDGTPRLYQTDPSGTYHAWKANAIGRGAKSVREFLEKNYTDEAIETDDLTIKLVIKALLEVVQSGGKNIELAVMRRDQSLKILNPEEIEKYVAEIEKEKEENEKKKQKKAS
UniProt P53621: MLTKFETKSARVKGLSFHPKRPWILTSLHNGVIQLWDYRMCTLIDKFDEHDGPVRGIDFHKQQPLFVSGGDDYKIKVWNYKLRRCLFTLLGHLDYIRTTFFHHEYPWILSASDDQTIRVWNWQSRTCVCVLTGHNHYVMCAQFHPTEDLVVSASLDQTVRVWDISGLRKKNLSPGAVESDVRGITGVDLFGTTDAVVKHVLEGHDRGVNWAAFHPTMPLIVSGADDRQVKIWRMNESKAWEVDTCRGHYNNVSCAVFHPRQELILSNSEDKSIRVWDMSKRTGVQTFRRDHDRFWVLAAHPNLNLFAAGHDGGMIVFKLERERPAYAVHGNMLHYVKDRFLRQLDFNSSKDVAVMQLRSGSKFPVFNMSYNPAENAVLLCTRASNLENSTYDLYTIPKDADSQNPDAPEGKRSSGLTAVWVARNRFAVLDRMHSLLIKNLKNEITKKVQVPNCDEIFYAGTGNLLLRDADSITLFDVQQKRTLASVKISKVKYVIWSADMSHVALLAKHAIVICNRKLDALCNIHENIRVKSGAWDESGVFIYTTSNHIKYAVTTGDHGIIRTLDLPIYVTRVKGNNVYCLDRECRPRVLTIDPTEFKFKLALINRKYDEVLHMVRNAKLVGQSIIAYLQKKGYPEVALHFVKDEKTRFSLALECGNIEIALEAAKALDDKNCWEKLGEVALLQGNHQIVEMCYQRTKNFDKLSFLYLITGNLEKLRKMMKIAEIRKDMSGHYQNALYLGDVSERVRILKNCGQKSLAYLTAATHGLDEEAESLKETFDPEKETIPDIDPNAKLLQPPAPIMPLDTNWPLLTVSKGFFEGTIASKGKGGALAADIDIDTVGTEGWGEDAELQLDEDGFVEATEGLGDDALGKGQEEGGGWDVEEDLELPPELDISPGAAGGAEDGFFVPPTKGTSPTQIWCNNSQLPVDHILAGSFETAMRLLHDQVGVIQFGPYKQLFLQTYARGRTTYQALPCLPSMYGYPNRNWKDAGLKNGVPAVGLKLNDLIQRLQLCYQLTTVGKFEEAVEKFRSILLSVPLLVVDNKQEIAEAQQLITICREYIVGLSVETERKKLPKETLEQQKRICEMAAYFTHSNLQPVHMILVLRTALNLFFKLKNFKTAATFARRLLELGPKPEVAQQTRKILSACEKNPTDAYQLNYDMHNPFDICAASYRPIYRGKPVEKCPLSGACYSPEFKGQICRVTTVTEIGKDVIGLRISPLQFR
UniProt P27824, residues 21-592: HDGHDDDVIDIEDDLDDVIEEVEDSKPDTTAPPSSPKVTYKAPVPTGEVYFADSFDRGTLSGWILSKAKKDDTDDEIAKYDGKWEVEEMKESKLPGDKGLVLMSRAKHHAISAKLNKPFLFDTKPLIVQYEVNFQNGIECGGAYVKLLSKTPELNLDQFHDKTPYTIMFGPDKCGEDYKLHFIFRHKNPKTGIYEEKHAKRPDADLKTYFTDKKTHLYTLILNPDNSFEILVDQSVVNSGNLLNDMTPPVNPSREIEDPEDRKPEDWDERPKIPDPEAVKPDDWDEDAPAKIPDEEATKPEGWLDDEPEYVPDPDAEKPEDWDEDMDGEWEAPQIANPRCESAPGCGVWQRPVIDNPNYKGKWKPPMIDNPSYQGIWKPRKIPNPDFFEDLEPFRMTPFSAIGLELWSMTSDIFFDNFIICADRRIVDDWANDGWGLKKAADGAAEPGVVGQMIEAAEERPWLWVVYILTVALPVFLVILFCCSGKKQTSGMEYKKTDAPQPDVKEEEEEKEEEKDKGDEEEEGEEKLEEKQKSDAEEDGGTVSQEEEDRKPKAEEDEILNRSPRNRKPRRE
UniProt Q86VP6: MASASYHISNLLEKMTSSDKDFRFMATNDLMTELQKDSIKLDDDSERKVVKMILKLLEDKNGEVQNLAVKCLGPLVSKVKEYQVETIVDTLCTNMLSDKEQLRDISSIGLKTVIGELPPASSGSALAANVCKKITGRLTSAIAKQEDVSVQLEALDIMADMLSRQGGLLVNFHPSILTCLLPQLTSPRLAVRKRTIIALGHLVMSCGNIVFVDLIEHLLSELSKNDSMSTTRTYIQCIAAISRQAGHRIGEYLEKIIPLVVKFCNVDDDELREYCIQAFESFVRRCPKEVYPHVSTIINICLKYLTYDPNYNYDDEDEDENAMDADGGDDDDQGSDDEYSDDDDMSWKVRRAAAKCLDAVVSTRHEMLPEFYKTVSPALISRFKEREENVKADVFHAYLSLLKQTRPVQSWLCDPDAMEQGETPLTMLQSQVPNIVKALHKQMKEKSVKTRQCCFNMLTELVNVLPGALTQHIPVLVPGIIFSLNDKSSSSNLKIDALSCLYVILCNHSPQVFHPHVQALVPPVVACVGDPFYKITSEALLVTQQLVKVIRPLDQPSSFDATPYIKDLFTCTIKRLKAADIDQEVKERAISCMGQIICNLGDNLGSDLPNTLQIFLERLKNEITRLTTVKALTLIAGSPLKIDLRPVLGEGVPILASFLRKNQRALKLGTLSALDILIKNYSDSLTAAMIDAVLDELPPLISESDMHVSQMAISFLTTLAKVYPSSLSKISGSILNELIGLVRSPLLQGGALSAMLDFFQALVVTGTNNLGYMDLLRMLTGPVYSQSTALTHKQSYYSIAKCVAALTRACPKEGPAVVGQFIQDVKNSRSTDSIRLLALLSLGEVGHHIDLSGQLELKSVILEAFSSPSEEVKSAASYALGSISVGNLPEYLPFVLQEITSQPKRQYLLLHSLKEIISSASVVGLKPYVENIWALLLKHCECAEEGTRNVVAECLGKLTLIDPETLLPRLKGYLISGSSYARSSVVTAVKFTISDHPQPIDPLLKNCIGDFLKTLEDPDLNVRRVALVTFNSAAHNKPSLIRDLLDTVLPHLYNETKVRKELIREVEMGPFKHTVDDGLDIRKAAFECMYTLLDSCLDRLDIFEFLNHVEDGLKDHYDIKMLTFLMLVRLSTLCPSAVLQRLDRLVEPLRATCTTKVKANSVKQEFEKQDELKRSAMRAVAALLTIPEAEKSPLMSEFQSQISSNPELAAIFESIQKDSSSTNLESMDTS
UniProt P30101, residues 25-505: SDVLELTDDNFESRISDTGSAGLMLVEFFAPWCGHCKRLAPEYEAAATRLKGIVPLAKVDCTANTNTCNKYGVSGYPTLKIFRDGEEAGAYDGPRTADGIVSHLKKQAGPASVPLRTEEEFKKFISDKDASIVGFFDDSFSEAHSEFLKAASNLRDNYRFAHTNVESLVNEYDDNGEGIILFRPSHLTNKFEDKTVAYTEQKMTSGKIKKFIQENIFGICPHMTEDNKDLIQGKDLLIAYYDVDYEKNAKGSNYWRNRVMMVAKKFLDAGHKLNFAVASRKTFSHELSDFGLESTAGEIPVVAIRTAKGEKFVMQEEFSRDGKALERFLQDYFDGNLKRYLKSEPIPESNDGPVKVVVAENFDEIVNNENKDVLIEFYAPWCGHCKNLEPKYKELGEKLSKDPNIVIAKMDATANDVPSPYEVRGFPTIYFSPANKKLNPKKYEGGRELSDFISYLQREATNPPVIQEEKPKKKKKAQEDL

What was measured:
[1] = target: eYFP-ATZ (enhanced YFP-tagged α1-antitrypsin Z, E342K), expressed in Huh7.5 cells (human) (UniProt P01009); test: affinity purification with mass spectrometry; eYFP-ATZ precipitated with GFP-Trap agarose from 1% Triton X-100 lysates (4 mg) of transfected Huh7.5 cells (CRT KO, CNX KO and their WT controls), 24 h after transfection; cells cross-linked with 2 mM DTBP before lysis; on-bead trypsin digest, LC-MS/MS; cutoff >= 8 PSM in WT, three replicates
[2] = target: eYFP-ATZ (enhanced YFP-tagged α1-antitrypsin Z, E342K), expressed in Huh7.5 cells (human) (UniProt P01009); test: as above; remark: listed apart in the source

| Molecule | binding [1] | binding [2] |
| --- | --- | --- |
| HSPA4, endogenous in Huh7.5 cells (from UniProt P34932 1-840) | binds | – |
| binding immunoglobulin protein (BiP, HSPA5), endogenous in Huh7.5 cells (from UniProt P11021 19-654) | binds | – |
| β-COP, endogenous in Huh7.5 cells (from UniProt P53618 1-953) | binds | – |
| PMSA7 (as printed), endogenous in Huh7.5 cells (from UniProt O14818 1-248) | binds | – |
| α-COP, endogenous in Huh7.5 cells (from UniProt P53621 1-1224) | binds | – |
| calnexin (CNX), endogenous in Huh7.5 cells (from UniProt P27824 21-592) | binds | – |
| CAND1, endogenous in Huh7.5 cells (from UniProt Q86VP6 1-1230) | binds | – |
| PDIA3 (ERp57), endogenous in Huh7.5 cells (from UniProt P30101 25-505) | binds | – |
| calmegin (CLGN), endogenous in Huh7.5 cells (protein, UniProt O14967 20-610) EFMDDDVETEDFEENSEEIDVNESELSSEIKYKTPQPIGEVYFAETFDSGRLAGWVLSKAKKDDMDEEISIYDGRWEIEELKENQVPGDRGLVLKSRAKHHAISAVLAKPFIFADKPLIVQYEVNFQDGIDCGGAYIKLLADTDDLILENFYDKTSYIIMFGPDKCGEDYKLHFIFRHKHPKTGVFEEKHAKPPDVDLKKFFTDRKTHLYTLVMNPDDTFEVLVDQTVVNKGSLLEDVVPPIKPPKEIEDPNDKKPEEWDERAKIPDPSAVKPEDWDESEPAQIEDSSVVKPAGWLDDEPKFIPDPNAEKPDDWNEDTDGEWEAPQILNPACRIGCGEWKPPMIDNPKYKGVWRPPLVDNPNYQGIWSPRKIPNPDYFEDDHPFLLTSFSALGLELWSMTSDIYFDNFIICSEKEVADHWAADGWRWKIMIANANKPGVLKQLMAAAEGHPWLWLIYLVTAGVPIALITSFCWPRKVKKKHKDTEYKKTDICIPQTKGVLEQEEKEEKAALEKPMDLEEEKKQNDGEMLEKEEESEPEEKSEEEIEIIEGQEESNQSNKSGSEDEMKEADESTGSGDGPIKSVRKRRVRKD | – | binds |

Read-outs that look alike come from different tables or passages of the source. No constants are given. Whether binding was seen depends on the method and setting. In cells and extracts the contact can be indirect. These calls come from enrichment with a bait or labelling near it, and not all partners need be listed.
